Our source for the binding values is article PMC3157345.

Results are given in words; binding and its absence hold for the method and conditions named. In cells and extracts the contact can be indirect. These calls come from enrichment with a bait or labelling near it, and not all partners need be listed.

This assay addresses SIRT3-FLAG. Put plainly: affinity purification with mass spectrometry; FLAG-IPs from HEK293T cells expressing empty vector or SIRT3-FLAG, eluted with FLAG peptides, LC-MS/MS; two independent experiments.

B1: SDHB subunit of complex II (succinate dehydrogenase) (protein, UniProt P21912 29-280)
chain: AQTAAATAPRIKKFAIYRWDPDKAGDKPHMQTYEVDLNKCGPMVLDALIKIKNEVDSTLTFRRSCREGICGSCAMNINGGNTLACTRRIDTNLNKVSKIYPLPHMYVIKDLVPDLSNFYAQYKSIEPYLKKKDESQEGKQQYLQSIEEREKLDGLYECILCACCSTSCPSYWWNGDKYLGPAVLMQAYRWMIDSRDDFTEERLAKLQDPFSLYRCHTIMNCTRTCPKGLNPGKAIAEIKKMMATYKEKKASV
On to B1, for which the binding result is given as “binds”.

B2: ATP5F1 (protein, UniProt P24539 43-256)
chain: PVPPLPEYGGKVRYGLIPEEFFQFLYPKTGVTGPYVLGTGLILYALSKEIYVISAETFTALSVLGVMVYGIKKYGPFVADFADKLNEQKLAQLEEAKQASIQHIQNAIDTEKSQQALVQKRHYLFDVQRNNIAMALEVTYRERLYRVYKEVKNRLDYHISVQNMMRRKEQEHMINWVEKHVVQSISTQQEKETIAKCIADLKLLAKKAQAQPVM
On to B2, for which the binding result was “binds”.

B3: SLC16A1 (protein, UniProt P53985 1-500)
chain: MPPAVGGPVGYTPPDGGWGWAVVIGAFISIGFSYAFPKSITVFFKEIEGIFHATTSEVSWISSIMLAVMYGGGPISSILVNKYGSRIVMIVGGCLSGCGLIAASFCNTVQQLYVCIGVIGGLGLAFNLNPALTMIGKYFYKRRPLANGLAMAGSPVFLCTLAPLNQVFFGIFGWRGSFLILGGLLLNCCVAGALMRPIGPKPTKAGKDKSKASLEKAGKSGVKKDLHDANTDLIGRHPKQEKRSVFQTINQFLDLTLFTHRGFLLYLSGNVIMFFGLFAPLVFLSSYGKSQHYSSEKSAFLLSILAFVDMVARPSMGLVANTKPIRPRIQYFFAASVVANGVCHMLAPLSTTYVGFCVYAGFFGFAFGWLSSVLFETLMDLVGPQRFSSAVGLVTIVECCPVLLGPPLLGRLNDMYGDYKYTYWACGVVLIISGIYLFIGMGINYRLLAKEQKANEQKKESKEEETSIDVAGKPNEVTKAAESPDQKDTDGGPKEEESPV
B3: the binding result was “binds”.

B4: ATP5O/OSCP (protein, UniProt P48047 24-213)
chain: FAKLVRPPVQVYGIEGRYATALYSAASKQNKLEQVEKELLRVAQILKEPKVAASVLNPYVKRSIKVKSLNDITAKERFSPLTTNLINLLAENGRLSNTQGVVSAFSTMMSVHRGEVPCTVTSASPLEEATLSELKTVLKSFLSQGQVLKLEAKTDPSILGGMIVRIGEKYVDMSVKTKIQKLGRAMREIV
B4: the binding entry was “binds”.

B5: HSDL2 (protein, UniProt Q6YN16 1-418)
chain: MLPNTGRLAGCTVFITGASRGIGKAIALKAAKDGANIVIAAKTAQPHPKLLGTIYTAAEEIEAVGGKALPCIVDVRDEQQISAAVEKAIKKFGGIDILVNNASAISLTNTLDTPTKRLDLMMNVNTRGTYLASKACIPYLKKSKVAHILNISPPLNLNPVWFKQHCAYTIAKYGMSMYVLGMAEEFKGEIAVNALWPKTAIHTAAMDMLGGPGIESQCRKVDIIADAAYSIFQKPKSFTGNFVIDENILKEEGIENFDVYAIKPGHPLQPDFFLDEYPEAVSKKVESTGAVPEFKEEKLQLQPKPRSGAVEETFRIVKDSLSDDVVKATQAIYLFELSGEDGGTWFLDLKSKGGNVGYGEPSDQADVVMSMTTDDFVKMFSGKLKPTMAFMSGKLKIKGNMALAIKLEKLMNQMNARL
For the molecule B5, the binding result is recorded as “binds”.
